Experimental data: PubChem BioAssay AID1347426 (Functional Genomics Laboratory (NCATS/FGL), 2020)
The campaign covered roughly 31,000 sequences. About 1,400 (4.5%) were called active.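 How the source made its calls: active means median seed-adjusted z-score above 1 or below -1; inactive means the rest.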 The list shows a part of the results.

assay: Novel Modifiers of Survival Motor Neuron (SMN) Protein: Gene Identification via Genome-wide siRNA Screen; conditions: HEK293T SMN2-luciferase reporter, siRNA knockdown, 72 h; actives lie on both sides;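 further: luminescence tracks full-length SMN protein made from the SMN2 reporter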
Procedure, shortened: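 Steps: spot 1 pmol siRNA, add Lipofectamine RNAiMax in serum-free DMEM, seed HEK293T SMN2–luciferase reporter cells; incubate 72 h at 37 °C; add ONE-Glo; normalize luminescence to control siRNA, log10, MAD. Candidates: |MAD| > 1.0.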

Row | Sequence | median seed-adjusted z-score
1 | GGCUAUGAGGGUUCUCUUATT against RBPMS | inactive: 0
2 | GCAAGUAGAUAACAAGUUUTT against MLH3 | inactive: 0.228
3 | GAACGAGAGUAUGAGAAGATT against PLXNB2 | inactive: -0.237
4 | GAAGGACCCGGUGAAGAAATT against HNRNPAB | inactive: -0.631
5 | GAACAUAUAGAAAUCCUUATT against MCTS1 | inactive: 0.116
6 | UCAGAUCUUUGGACGCAAATT against ECSIT | inactive: -0.116
7 | GGACUAAGAGUCAAAAGAATT against CLEC4C | inactive: 0.664
8 | CCAAGAUGCUCAUAUAACATT against SYT14 | inactive: 0.0794
9 | GUCUUUUGAUUACAACUAUTT against FUSIP1 | inactive: 0.865
10 | GGAGGACAAAUAUGAAGAATT against TPM4 | inactive: -0.407
11 | GGUCCAAUCUCAGGGCAAATT against DIS3L | inactive: 0
12 | GCAUAUUCCAAACUAGUGATT against STARD6 | inactive: 0.0605
13 | CGAUGAUGACAAAAGACGATT against GUCY2C | inactive: -0.0181
14 | GAUGAUGAAUUGUACUCUATT against SBF2 | inactive: 0.569
15 | GAAGUUCACUUUCGAGUUATT against MYOZ3 | inactive: 0.16
16 | GAGAGAUUCUUAAAGAGCUTT against RDH16 | inactive: 0.421
17 | GGAAUUUUCAUCUAGGAUUTT against ASGR1 | inactive: -0.128
18 | GCUUUAGUCUAGCAAGUCUTT against NIPA2 | inactive: -0.103
19 | CAGUGAGCAUUGAACGGUUTT against ADAMTS6 | inactive: 0.023
20 | CAUCAUCAUUCUUAUCCUUTT against STX7 | inactive: 0.251
21 | ACAGCGACGCCAAGACAGATT against CLIC3 | inactive: 0
22 | CGAAAAUCACAGUUAUCAATT against CDON | inactive: 0.777

Row | Sequence | median seed-adjusted z-score
23 | CAACUUCAGAUAUAUACUUTT against RGS17 | inactive: -0.627
24 | GGAACACCCUGACACGAAATT against KIF14 | inactive: 0
25 | CAUCCUCAUUUGAAACCGUTT against CREBL1 | inactive: -0.348
26 | GCUCAUUGUACAUCUCAGATT against ZNF26 | inactive: 0
27 | GAACCGGGAAGAAAACCUATT against MICAL1 | inactive: 0.31
28 | GACGAGACCUAGAACCGAATT against SCRT1 | inactive: -0.483
29 | GGAAUAACCGAGAUAAAGATT against BNC2 | inactive: -0.0556
30 | AAUGCUGAGUUAAAGCCAATT against SPINK6 | inactive: 0.275
31 | AGACCAAGAGCGCAUCAAATT against JUNB | inactive: -0.224
32 | AGACCAAGCCGUUCCCUGATT against RUNX3 | inactive: -0.489
33 | GCGUGAUCCUGGACUAUGATT against EPHB2 | inactive: -0.325
34 | CACCGAGGGUUUUACUGCATT against PPAP2B | inactive: 0
35 | GGCCUUUAUUCUCACUACUTT against FADS6 | inactive: -0.637
36 | GGUUAUAUACCACCUUAUATT against QRSL1 | inactive: -0.539
37 | GGACAGUGCAAUGAUCGUATT against FBN1 | inactive: 0
38 | GGAGAUUGUUUCACGGAAATT against TBC1D23 | inactive: 0.0932
39 | CCACUGAAAGAGUGACUUUTT against CASP1 | inactive: -0.331
40 | GCAGCCUUGUUGCUCUUAATT against GCN1L1 | inactive: 0.0513
41 | CAAGCAAGGAUGACACGUATT against MKX | inactive: 0.00623
42 | CCAAACUGGUGACCGACUATT against HBS1L | inactive: -0.509
43 | GAAUAUUACAGACCAUUUUTT against SMA4 | inactive: 0.291
44 | CCCUUGAACUCUACAAGAATT against CKM | inactive: -0.189

Row | Sequence | median seed-adjusted z-score
45 | GGAAUCUCGUGGAGUAUUATT against LRP2BP | inactive: -0.547
46 | GCUUUACUGAGUACAUUGATT against TAF7L | inactive: -0.14
47 | ACCUCGGACUGGUACAUGATT against SLC38A3 | inactive: -0.177
48 | GCCUUUGCACCGUACAACATT against DTX2 | inactive: 0.0597
49 | AGAGCGGUCUGACAGUGGATT against NUDT1 | inactive: -0.175
50 | UAUAUGCACUUGAAAGUAUTT against CSTA | inactive: -0.351
51 | GCCCGGUUAUUUCUGGAGATT against DGAT1 | inactive: 0.148
52 | CGUGCUCUAUCACCUCUUUTT against PAQR4 | inactive: 0.316
53 | GAAAGUAUUUUAGAAAGUATT against GPR88 | inactive: 0.404
54 | GCAGUGAUCGGAAGAAACATT against ZIC5 | inactive: 0
55 | GGAUUCGUCCAGACUCAAATT against PRMT5 | inactive: -0.303
56 | GACUAAAAACUUAGUUUAATT against RHCE | inactive: 0.488
57 | CGGUCUCUGCGAUAUGAUATT against SDHA | inactive: -0.103
58 | CCAAGAUCACGUUCAUGCATT against TTF2 | inactive: 0.282
59 | GGACCGCUGUUUUGGAUUUTT against STX18 | inactive: -0.151
60 | GGCUGUCAUAGACAAGUAUTT against TNN | inactive: -0.122
61 | CCAUUGAAGUAUCACGAGATT against NR2C1 | inactive: 0.386
62 | GCUUUGCUCUGGUGAGUGATT against P2RX7 | inactive: -0.527
63 | AUUCAUGCAUCUCAACAAATT against PHF11 | inactive: 0.174
64 | GGUUUAUUCCAAAAAGAAATT against GPR123 | inactive: 0
65 | GCUAUGUCCAAACUCAUAATT against SLC46A2 | inactive: 0
66 | GCAUAGUUUCGGUCAUCUATT against GBF1 | inactive: -0.162

Four records drawn at random from those above:
Row | Sequence | median seed-adjusted z-score
46 | GCUUUACUGAGUACAUUGATT against TAF7L | inactive: -0.14
56 | GACUAAAAACUUAGUUUAATT against RHCE | inactive: 0.488
49 | AGAGCGGUCUGACAGUGGATT against NUDT1 | inactive: -0.175
63 | AUUCAUGCAUCUCAACAAATT against PHF11 | inactive: 0.174

Further records follow.

Row | Sequence | median seed-adjusted z-score
67 | CCAUAUGAGUGUACUAUCUTT against ZNF791 | inactive: 0.219
68 | GUGGAUAAAGCAACAUUUATT against ARHGDIB | inactive: -0.549
69 | GGACGGGAACUGCUCUUUATT against MYLK | inactive: 0.0226
70 | GACCAGUUCAUCUCACUUATT against GALK1 | inactive: 0.315
71 | GGCUGACCAUGUUUCGAAUTT against CLCN7 | inactive: -0.28
72 | GCUGUAGCCUUGAUGCCUATT against INMT | inactive: 0.863
73 | CCACCAUUAUUUCACCCGATT against UBE2I | inactive: 0.717
74 | GAAGAGAUCUAAGUAUGUUTT against MYO7A | inactive: -0.0127
75 | ACAUAGUGCUCUUCCUAGATT against CCR4 | inactive: 0
76 | CCUCUUCACAGGUAUCCGATT against ARAP3 | inactive: -0.00876
77 | GGAAGGAUAUUACACCUAUTT against MMP24 | active: -1.28
78 | GCAGUUUGAGCAAUCAGAATT against IGF2BP3 | inactive: -0.636
79 | GAUUGAUCUUUACCCAAGATT against AMZ2 | inactive: 0.26
80 | GCAGAUCCUUGAGAAGCGATT against ACAD9 | inactive: -0.384
81 | GGCGAGGCUUUAUAGUUGATT against ZNF589 | inactive: -0.0897
82 | CACUGAAUGAAGACUCAUATT against YWHAQ | inactive: -0.412
83 | GCAGGUUCACUUACACUGUTT against COL1A2 | inactive: 0.481
84 | GGAUAUGGUUAAUAGGAGATT against SMC6 | inactive: 0.227
85 | GGAGGUCACUUGUGAAUCATT against GLS2 | inactive: -0.793
86 | GGUUAUAGUUCCUACAGAUTT against HMGCLL1 | inactive: 0.275
87 | CAGCGGGUAUGGGAUCCUATT against ZNF593 | inactive: 0.215
88 | CACUGAAGCUAAUCGCUAUTT against GRM1 | inactive: 0.0376

Row | Sequence | median seed-adjusted z-score
89 | UGGACAUCGUGGAUCCAAATT against PRMT8 | inactive: 0
90 | CACCGACUUGUUAAAAGAATT against MTA1 | inactive: 0.407
91 | CAUUUACCAUGGUCGGAAUTT against NAAA | inactive: -0.137
92 | GGAACCAGAUUGAACGGAUTT against ECM2 | inactive: 0.179
93 | GUUCAUGGUUUGUACAGCATT against ZNF766 | inactive: -0.577
94 | GGAGUGUGAAGAUCGAGCATT against KCNN1 | inactive: -0.347
95 | CCAAAGCUCUCAUCGGAGATT against GNS | inactive: 0
96 | UCGAGGCUUUCUACAGAAATT against RAB42 | inactive: 0.241
97 | CACUGGGUUUUAUCUGAAUTT against APOH | inactive: 0.0283
98 | GCUCUUUACUUGGGCAUUATT against CLDN2 | inactive: 0.865
99 | GGCUGUAACGUGAACAUCATT against DAPK1 | inactive: 0.27
100 | GCACUGAAGGCUACAACAATT against PCSK4 | inactive: 0.828
101 | GCUUAAAUUAUAUACCUUGTT against WDFY3 | inactive: -0.12
102 | GAAAUUGGAUGUGAGGAUATT against MLH1 | inactive: -0.215
103 | GAGUCAAAUUUGUGAAGAATT against GLO1 | inactive: -0.0827
104 | GGCUCUACAGUAAUGACUUTT against HTR2A | inactive: 0.0665
105 | CCACCAUAGAGGAUUCUUATT against NRAS | inactive: -0.581
106 | UGAGAUUACUGAAUUGAGATT against KRT10 | inactive: 0.493
107 | CGAUGCCUGUUAUAAAUUATT against RCAN3 | inactive: 0.544
108 | AAAGAAGUGUUGACCAGGATT against TRIM4 | inactive: 0

2 entries from above, with tabs.
Row	Sequence	median seed-adjusted z-score
74	GAAGAGAUCUAAGUAUGUUTT against MYO7A	inactive: -0.0127
94	GGAGUGUGAAGAUCGAGCATT against KCNN1	inactive: -0.347
